Measurements reported in PubChem BioAssay AID1159578 (Peter MacCallum Cancer Centre, 2015)

Purpose: 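Knock-downs that alter how fast lymphatic endothelial cells migrate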 (primary screen)
System: human lymphatic endothelial cells
Reagents: siRNA pool against human genes, 40 nM
Time to read-out: 48 h after transfection
Measurement: 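Cells stained with dye and imaged after a scratch; covered wound area and nuclei counted, duplicates averaged, migration set against mock wells and turned into a robust z-score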
Direction: migration robust z-score: higher = faster migration into the scratch; nuclei per well: higher = more cells in the well
Hit rule: 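Migration changed when robust z exceeds 2 or falls below -2 and mean nuclei number is at least 3300; otherwise not called changed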
Meaning of the calls: active = migration changed; inactive = no migration change, or too few cells
In all, the deposit lists about 18,000 reagents; this is a random part of them. Of all reagents, about 1,030 (5.7%) are marked active. 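Inactive calls also include pools with fewer than 3300 nuclei, whose migration was not assessed.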 Raw values vary from plate to plate and are shown uncorrected. Not all columns of the deposit are shown. Reagent sequences are not shown.

HLA-DRB3 (major histocompatibility complex, class II, DR beta 3) — migration robust z-score = 0.48; nuclei per well, duplicate mean = 5282; outcome = inactive
SPMIP5 (sperm microtubule inner protein 5) — migration robust z-score = -0.14; nuclei per well, duplicate mean = 5791; outcome = inactive
BMPR1A (bone morphogenetic protein receptor type 1A) — migration robust z-score = 1.43; nuclei per well, duplicate mean = 6083; outcome = inactive
P2RY10 (P2Y receptor family member 10) — migration robust z-score = -0.5; nuclei per well, duplicate mean = 6428; outcome = inactive
GABARAPL1 (GABA type A receptor associated protein like 1) — migration robust z-score = -1.6; nuclei per well, duplicate mean = 4736; outcome = inactive
CCDC78 (coiled-coil domain containing 78) — migration robust z-score = 1.81; nuclei per well, duplicate mean = 6366; outcome = inactive
ZNF333 (zinc finger protein 333) — migration robust z-score = 1.18; nuclei per well, duplicate mean = 6614; outcome = inactive
PROS1 (protein S) — migration robust z-score = -0.32; nuclei per well, duplicate mean = 4321; outcome = inactive
PRELP (proline and arginine rich end leucine rich repeat protein) — migration robust z-score = 0.12; nuclei per well, duplicate mean = 6097; outcome = inactive
PRCD (photoreceptor disc component) — migration robust z-score = 0.06; nuclei per well, duplicate mean = 5774; outcome = inactive
OR7A10 (olfactory receptor family 7 subfamily A member 10) — migration robust z-score = 1.9; nuclei per well, duplicate mean = 7096; outcome = inactive
DBX1 (developing brain homeobox 1) — migration robust z-score = -1.67; nuclei per well, duplicate mean = 5988; outcome = inactive
SLC22A17 — migration robust z-score = -0.13; nuclei per well, duplicate mean = 6989; outcome = inactive
PRRC2C (proline rich coiled-coil 2C) — migration robust z-score = -0.88; nuclei per well, duplicate mean = 6739; outcome = inactive
CA4 (carbonic anhydrase 4) — migration robust z-score = -1.74; nuclei per well, duplicate mean = 5262; outcome = inactive
GPR183 (G protein-coupled receptor 183) — migration robust z-score = 1.2; nuclei per well, duplicate mean = 6982; outcome = inactive
EIF1AD — migration robust z-score = 0.52; nuclei per well, duplicate mean = 5585; outcome = inactive
MXD3 (MAX dimerization protein 3) — migration robust z-score = -0.05; nuclei per well, duplicate mean = 6336; outcome = inactive
CPNE5 (copine 5) — migration robust z-score = 0.76; nuclei per well, duplicate mean = 4761; outcome = inactive
CSRP3 (cysteine and glycine rich protein 3) — migration robust z-score = 1.14; nuclei per well, duplicate mean = 5313; outcome = inactive
EGFLAM (EGF like, fibronectin type III and laminin G domains) — migration robust z-score = 0.22; nuclei per well, duplicate mean = 6721; outcome = inactive

A few values from the list:
For “nuclei per well, duplicate mean”, EGFLAM (EGF like, fibronectin type III and laminin G domains) shows 6721
P2RY10 (P2Y receptor family member 10), nuclei per well, duplicate mean: 6428
